This is an account of results in publication PMC8280106 (2021).

The chains behind the UniProt entries cited, without tags or fusion partners. Where a name states a change or a piece, a line headed by the entry shows the natural chain unless it says otherwise. A line that says so, or that is headed by a name, gives the form on record, which may keep a tag or linker.
endogenous CD44s (CD44 standard isoform) (human (endogenous in CRC cells)) (P16070, form named): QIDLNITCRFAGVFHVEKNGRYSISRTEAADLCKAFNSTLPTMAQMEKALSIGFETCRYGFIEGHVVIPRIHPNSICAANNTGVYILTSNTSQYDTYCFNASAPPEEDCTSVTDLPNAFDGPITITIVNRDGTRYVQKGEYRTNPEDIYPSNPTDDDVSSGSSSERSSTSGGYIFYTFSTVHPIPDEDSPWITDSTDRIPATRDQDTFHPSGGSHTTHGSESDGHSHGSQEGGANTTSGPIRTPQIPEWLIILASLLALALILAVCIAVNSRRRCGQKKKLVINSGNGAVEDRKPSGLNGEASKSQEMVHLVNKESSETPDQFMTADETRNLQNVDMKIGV
UniProt P40763: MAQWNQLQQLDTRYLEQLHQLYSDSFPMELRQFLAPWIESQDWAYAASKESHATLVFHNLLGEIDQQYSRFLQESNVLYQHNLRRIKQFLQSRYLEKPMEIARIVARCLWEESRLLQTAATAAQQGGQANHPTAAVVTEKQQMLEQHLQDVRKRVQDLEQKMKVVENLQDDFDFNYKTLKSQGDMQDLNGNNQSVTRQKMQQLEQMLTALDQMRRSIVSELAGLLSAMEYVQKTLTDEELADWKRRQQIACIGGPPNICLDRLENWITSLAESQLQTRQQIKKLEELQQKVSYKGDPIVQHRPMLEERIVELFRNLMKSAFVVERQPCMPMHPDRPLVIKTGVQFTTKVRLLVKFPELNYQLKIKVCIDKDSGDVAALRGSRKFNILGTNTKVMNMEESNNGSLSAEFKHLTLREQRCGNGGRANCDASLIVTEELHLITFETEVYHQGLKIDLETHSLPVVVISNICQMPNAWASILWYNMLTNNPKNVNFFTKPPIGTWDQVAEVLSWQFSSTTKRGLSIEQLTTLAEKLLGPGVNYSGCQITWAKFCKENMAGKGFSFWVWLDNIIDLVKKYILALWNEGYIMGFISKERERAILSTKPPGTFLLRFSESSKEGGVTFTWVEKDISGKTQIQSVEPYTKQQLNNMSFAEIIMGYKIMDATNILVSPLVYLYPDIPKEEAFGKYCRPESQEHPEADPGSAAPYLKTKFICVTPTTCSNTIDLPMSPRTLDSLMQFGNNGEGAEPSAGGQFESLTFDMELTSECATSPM

Results are given in words; binding and its absence hold for the method and conditions named. In cells and extracts the contact can be indirect. Some binding calls cover weakened binding; strength is not graded here.

This assay has as its target endogenous CD44s (CD44 standard isoform) (human (endogenous in CRC cells)) (UniProt P16070). In words: co-IP; endogenous proteins from cells in the presence or absence of 0.152 μM TFF3; co-IP kit (Pierce), antibody coupled to resin, lysate at 4 °C overnight; IgG as control antibody.

For “signal transducer and activator of transcription 3 (STAT3), endogenous (from UniProt P40763 1-770)”, the binding result is on record as “binds”.
